Measurements from the supplement of paper PMC10973195.
± gives the standard deviation of the averaged measurements. This is one part of the list. These are raw signals, not scaled to a control.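 The test system is a mixed culture of neurons, microglia and astrocytes in which bacterial LPS triggers microglia-driven neuron loss, modelling inflammatory neurodegeneration. Each compound was compared with vehicle (DMSO) wells on the same plates, and the SYK inhibitor BAY61-3606 served as the reference neuroprotective control.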

Columns and labels:
Settings in all cases: 1 µM, treatment time 3 days
[1] = tested on: rat primary cerebellar neuron-glia coculture; test: microglia count (IB4+) per image field (cells per field); higher = more microglia
[2] = tested on: rat primary cerebellar neuron-glia coculture; test: median microglial FormFactor (circularity) per image (dimensionless (0-1)); higher = rounder, more ameboid microglia
[3] = tested on: rat primary cerebellar neuron-glia coculture; test: necrotic cell count (DRAQ7+) per image field (cells per field); higher = more necrosis
[4] = tested on: rat primary cerebellar neuron-glia coculture; test: live neuron count (NeuO+) per image field (cells per field); higher = more surviving neurons

Structure (SMILES) | microglia count ([1]; LPS 0 ng/mL) | microglia count ([1]; LPS 100 ng/mL) | median microglial FormFactor ([2]; LPS 0 ng/mL) | median microglial FormFactor ([2]; LPS 100 ng/mL) | necrotic cell count ([3]; LPS 0 ng/mL) | necrotic cell count ([3]; LPS 100 ng/mL) | live neuron count ([4]; LPS 0 ng/mL) | live neuron count ([4]; LPS 100 ng/mL)
NC(=O)c1ccc(-c2nc(-c3ccccn3)c(-c3ccc4c(c3)OCO4)[nH]2)cc1 | 160 ± 28 | 435 ± 60 | 0.575 ± 0.1 | 0.581 ± 0.046 | – | – | – | –
CCCCCCCCCCCCC/C=C/[C@@H](O)[C@@H](N)COP(=O)(O)O | 181 ± 63 | 447 ± 67 | 0.538 ± 0.09 | 0.654 ± 0.045 | – | – | – | –
CCOC(=O)c1c(NC(=O)Cc2ccccc2)sc2c1CCN(C(=O)OCC)C2 | 161 ± 34 | 404 ± 57 | 0.529 ± 0.067 | 0.726 ± 0.081 | 78.1 ± 28 | 1050 ± 280 | 2680 ± 410 | 157 ± 140
O=C(c1ccccc1)c1ccc2n1CCC2C(=O)O (stereo not drawn) | 162 ± 46 | 543 ± 67 | 0.553 ± 0.081 | 0.455 ± 0.064 | 89 ± 34 | 781 ± 280 | 2530 ± 630 | 745 ± 760
CC(C)NC[C@@H](C(=O)N1CCN(c2ncnc3c2[C@H](C)C[C@H]3O)CC1)c1ccc(Cl)cc1 | 145 ± 58 | 430 ± 74 | 0.581 ± 0.086 | 0.701 ± 0.071 | 99.9 ± 26 | 940 ± 400 | 2480 ± 470 | 578 ± 950
O=c1[nH]c(=O)n([C@H]2C[C@H](O)[C@@H](CO)O2)cc1F | 169 ± 29 | 458 ± 80 | 0.542 ± 0.076 | 0.625 ± 0.084 | – | – | – | –
CC(C)NCC(O)c1ccc(O)c(O)c1 (stereo not drawn) | 179 ± 76 | 490 ± 140 | 0.555 ± 0.062 | 0.623 ± 0.078 | – | – | – | –
O=c1[nH]c2cc(Cl)ccc2c(O)c1-c1cccc(Oc2ccccc2)c1 | 157 ± 36 | 442 ± 94 | 0.523 ± 0.08 | 0.667 ± 0.048 | – | – | – | –
Cn1/c(=N/NC(=O)C23CC4CC(CC(C4)C2)C3)sc2ccccc21 | 174 ± 73 | 437 ± 70 | 0.466 ± 0.1 | 0.676 ± 0.063 | 88.3 ± 30 | 918 ± 340 | 2440 ± 740 | 386 ± 420
Nc1ccccc1NC(=O)c1ccc(CNC(=O)OCc2cccnc2)cc1 | 134 ± 18 | 454 ± 170 | 0.46 ± 0.049 | 0.616 ± 0.047 | – | – | – | –
Cc1cncn1CCCn1c(=S)[nH]c2ccccc2c1=O | 152 ± 40 | 407 ± 55 | 0.545 ± 0.071 | 0.694 ± 0.05 | – | – | – | –
N#C[C@@H]1CC(F)(F)CN1C(=O)CNC(=O)c1ccnc2ccccc12 | 170 ± 49 | 443 ± 68 | 0.52 ± 0.077 | 0.661 ± 0.056 | 83.8 ± 28 | 935 ± 200 | 2650 ± 400 | 364 ± 250
CCN(CC)C(=O)Cc1csc(NS(=O)(=O)c2cccc(Cl)c2C)n1 | 177 ± 59 | 435 ± 77 | 0.542 ± 0.083 | 0.61 ± 0.082 | – | – | – | –
O=C(NCCCN1CCC2(CC1)OCc1ccccc12)[C@H]1CCCN1Cc1ccccc1 | 195 ± 42 | 437 ± 100 | 0.548 ± 0.095 | 0.652 ± 0.073 | 77.3 ± 32 | 813 ± 240 | – | –
COc1cc(OC2CCN(C)CC2)ccc1Nc1ncc2c(n1)n(C1CCCC1)c(=O)n2C | 121 ± 14 | 407 ± 36 | 0.652 ± 0.13 | 0.686 ± 0.023 | – | – | – | –
O=C1Nc2ccc(I)cc2/C1=C/c1cc(Br)c(O)c(Br)c1 | 154 ± 38 | 431 ± 88 | 0.545 ± 0.06 | 0.656 ± 0.066 | – | – | – | –
COc1ccc(NS(=O)(=O)c2sc3ccc(Cl)cc3c2C)cc1N1CCNCC1 | 358 ± 500 | 459 ± 87 | 0.533 ± 0.069 | 0.628 ± 0.1 | 74.4 ± 35 | 837 ± 360 | – | –
O=C(NCC1(c2ccc(F)cc2)CCCC1)C1CCN(Cc2ccccc2)CC1 | 176 ± 56 | 412 ± 97 | 0.562 ± 0.097 | 0.649 ± 0.092 | – | – | – | –
COCC(=O)NC/C=C/c1ccc2ncnc(Nc3ccc(Oc4ccc(C)nc4)c(C)c3)c2c1 | 178 ± 44 | 439 ± 95 | 0.51 ± 0.079 | 0.638 ± 0.094 | 84.7 ± 44 | 1060 ± 510 | 2600 ± 600 | 380 ± 540
CCn1c(-c2nonc2N)nc2ccccc21 | 234 ± 73 | 437 ± 96 | 0.558 ± 0.062 | 0.657 ± 0.056 | – | – | – | –
CC(C)Oc1ccc(-c2cnc3c(-c4ccnc5ccccc45)cnn3c2)cc1 | 169 ± 44 | 428 ± 99 | 0.529 ± 0.089 | 0.661 ± 0.062 | – | – | – | –
C[C@]12C=CC(=O)C=C1CC[C@H]1[C@@H]3C[C@@H](O)[C@](O)(C(=O)CO)[C@@]3(C)C[C@H](O)[C@@]12F | 30.2 ± 23 | 278 ± 65 | 0.538 ± 0.085 | 0.662 ± 0.039 | – | – | – | –
CCN(CC)c1ccc(NC(=O)c2c(-c3c(Cl)cccc3Cl)noc2C)cc1 | 148 ± 35 | 443 ± 100 | 0.574 ± 0.08 | 0.658 ± 0.057 | 90.6 ± 34 | 996 ± 330 | 2640 ± 550 | 364 ± 350
CCCC(=O)C1CCN(c2ncnc3c2CN(C(=O)c2ccc(-c4ccccc4)cc2)CC3)CC1 | 194 ± 84 | 457 ± 140 | 0.573 ± 0.075 | 0.674 ± 0.1 | 70.9 ± 33 | 657 ± 330 | 2480 ± 580 | 896 ± 540
CN1C(N)=N[C@](C)(c2cc(NC(=O)c3ccc(F)cn3)ccc2F)CS1(=O)=O | 190 ± 32 | 440 ± 140 | 0.537 ± 0.083 | 0.68 ± 0.071 | 94.7 ± 30 | 949 ± 420 | 2560 ± 340 | 337 ± 400
COc1cc(-c2cc(-c3cccc(O)c3)cnc2N)cc(OC)c1OC | 167 ± 34 | 408 ± 59 | 0.543 ± 0.1 | 0.649 ± 0.041 | – | – | – | –
Cc1ccc(NC(=O)/C=C/c2ccccc2)cc1 | 156 ± 34 | 452 ± 87 | 0.581 ± 0.085 | 0.637 ± 0.072 | 81 ± 38 | 985 ± 280 | 2570 ± 470 | 323 ± 260
C/C(=N\NC(=O)c1cccc(S(=O)(=O)N2CCOCC2)c1)c1ccccc1O | 183 ± 59 | 427 ± 94 | 0.545 ± 0.13 | 0.66 ± 0.054 | 82.9 ± 40 | 921 ± 280 | – | –

Rewritten tab-delimited: two of the compounds above
Structure (SMILES)	microglia count ([1]; LPS 0 ng/mL)	microglia count ([1]; LPS 100 ng/mL)	median microglial FormFactor ([2]; LPS 0 ng/mL)	median microglial FormFactor ([2]; LPS 100 ng/mL)	necrotic cell count ([3]; LPS 0 ng/mL)	necrotic cell count ([3]; LPS 100 ng/mL)	live neuron count ([4]; LPS 0 ng/mL)	live neuron count ([4]; LPS 100 ng/mL)
Nc1ccccc1NC(=O)c1ccc(CNC(=O)OCc2cccnc2)cc1	134 ± 18	454 ± 170	0.46 ± 0.049	0.616 ± 0.047	–	–	–	–
O=C(NCC1(c2ccc(F)cc2)CCCC1)C1CCN(Cc2ccccc2)CC1	176 ± 56	412 ± 97	0.562 ± 0.097	0.649 ± 0.092	–	–	–	–
